Measurements from PubChem BioAssay AID270 (DTP/NCI, 2004).
The list shows only some results of the screen, not a fair sample: it is rich in T/C values a quarter to a half above the control, in often repeated tests (any T/C) and in doses without a T/C. Other doses and runs of a compound stand elsewhere. T/C gives the treated animals as a percentage of the vehicle group. Some entries give survivors of the animals treated and no T/C: the source files T/C as zero there, which appears to mark a toxic dose or a test without result, not a measured value. Some survivor counts are full or nearly so, which does not show that the dose was tolerated: the source hardly ever lists a survival T/C far under the control, and the zero likely stands for such cases as well. Counts of survivors are from the toxicity check (mostly the fifth day) where no day follows; animals may have died later. Schedule codes are those of the source, read here as Q, the interval in days (D) or hours (H), X, the number of doses. Some entries hold several experiments; the results are listed from low to high. For survival time, the PubChem record calls one and a half times the control and up active, and a quarter to a half above the control has no call in these data; cut-offs in other NCI protocols can differ.

System: BDF1 mice, s.c. Lewis lung carcinoma, T/C %
Test: NCI In Vivo Anticancer Drug Screen. Data for tumor model Lewis Lung Carcinoma (subcutaneous) in B6D2F1 (BDF1) mice
Details: T/C endpoint: median survival time, higher T/C = longer survival
Outline: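 Readout: survival or tumor size, expressed as treated (T) over vehicle control (C). Transplantable tumor implanted in mice; compound given to the treated group.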

## CC1CCC(NC(=O)N(CCCl)N=O)CC1 (configuration not stated)
dose: 1.0 mg/kg/injection, schedule: Q01DX009 (ip), vehicle: saline + alcohol, evaluated on day 45
  T/C: 112 % of control
dose: 1.0 mg/kg/injection, schedule: Q01DX009 (ip), vehicle: saline + alcohol, evaluated on day 60
  T/C: 96 and 109 % of control
dose: 1.0 mg/kg/injection, schedule: Q01DX009 (ip), vehicle: saline + alcohol, evaluated on day 70
  T/C: 92 % of control
dose: 2.0 mg/kg/injection, schedule: Q01DX001 (ip), vehicle: Klucel (hydroxypropylcellulose) (HPC)
  survivor count: 10 of 10
dose: 2.0 mg/kg/injection, schedule: Q01DX009 (ip), vehicle: saline + alcohol, evaluated on day 45
  T/C: 112 % of control
dose: 2.0 mg/kg/injection, schedule: Q01DX009 (ip), vehicle: saline + alcohol, evaluated on day 60
  T/C: 102 and 114 % of control
dose: 2.0 mg/kg/injection, schedule: Q01DX009 (ip), vehicle: saline + alcohol
  survivor count: 10 of 10
dose: 2.0 mg/kg/injection, schedule: Q02DX009 (ip), vehicle: saline + alcohol
  T/C: 129 % of control
dose: 4.0 mg/kg/injection, schedule: Q01DX001 (ip), vehicle: saline + alcohol
  survivor count: 10 of 10
dose: 4.0 mg/kg/injection, schedule: Q01DX009 (ip), vehicle: Klucel (hydroxypropylcellulose) (HPC)
  survivor count: 10 of 10
dose: 4.0 mg/kg/injection, schedule: Q01DX009 (ip), vehicle: saline + alcohol, evaluated on day 45
  T/C: 104 % of control
dose: 4.0 mg/kg/injection, schedule: Q01DX009 (ip), vehicle: saline + alcohol, evaluated on day 60
  T/C: 126 and 133 % of control
dose: 4.0 mg/kg/injection, schedule: Q01DX009 (ip), vehicle: saline + alcohol
  survivor count: 10 of 10
dose: 4.0 mg/kg/injection, schedule: Q01DX009 (ip), vehicle: saline with Tween-80
  T/C: 135 % of control
dose: 5.0 mg/kg/injection, schedule: Q04DX003 (ip), vehicle: other
  T/C: 136 % of control
dose: 7.5 mg/kg/injection, schedule: Q01DX001 (ip), vehicle: Klucel (hydroxypropylcellulose) (HPC)
  T/C: 127 % of control
dose: 8.0 mg/kg/injection, schedule: Q01DX009 (ip), vehicle: saline + alcohol, evaluated on day 45
  T/C: 137 % of control
dose: 8.0 mg/kg/injection, schedule: Q01DX009 (ip), vehicle: saline + alcohol, evaluated on day 60
  T/C: 100 and 133 % of control
dose: 8.0 mg/kg/injection, schedule: Q01DX009 (ip), vehicle: saline + alcohol, evaluated on day 70
  T/C: 99 % of control
dose: 8.0 mg/kg/injection, schedule: Q01DX009 (ip), vehicle: saline with Tween-80
  T/C: 137 and 149 % of control
dose: 8.0 mg/kg/injection, schedule: Q02DX009 (ip), vehicle: saline + alcohol
  T/C: 125 % of control
dose: 8.6 mg/kg/injection, schedule: Q04DX004 (ip), vehicle: saline with Tween-80
  T/C: 138 % of control
dose: 10.0 mg/kg/injection, schedule: Q01DX005 (ip), vehicle: saline with Tween-80
  T/C: 141 % of control
dose: 15.0 mg/kg/injection, schedule: Q01DX001 (ip), vehicle: Klucel (hydroxypropylcellulose) (HPC)
  T/C: 131 % of control
dose: 15.0 mg/kg/injection, schedule: Q01DX001 (ip), vehicle: saline with Tween-80
  T/C: 132 % of control
dose: 16.0 mg/kg/injection, schedule: Q01DX001 (ip), vehicle: saline + alcohol
  survivor count: 10 of 10
dose: 16.0 mg/kg/injection, schedule: Q01DX001 (ip), vehicle: saline with Tween-80
  T/C: 140 % of control
dose: 16.0 mg/kg/injection, schedule: Q01DX005 (ip), vehicle: saline + alcohol
  survivor count: 9 of 10
dose: 16.0 mg/kg/injection, schedule: Q01DX009 (ip), vehicle: Klucel (hydroxypropylcellulose) (HPC)
  survivor count: 10 of 10
dose: 16.0 mg/kg/injection, schedule: Q01DX009 (ip), vehicle: saline with Tween-80
  survivor count: 9 of 10 and 10 of 10
dose: 18.0 mg/kg/injection, schedule: Q01DX001 (ip), vehicle: Klucel (hydroxypropylcellulose) (HPC)
  T/C: 141 % of control
dose: 20.0 mg/kg/injection, schedule: Q01DX001 (ip), vehicle: Klucel (hydroxypropylcellulose) (HPC)
  T/C: 143 % of control
dose: 20.0 mg/kg/injection, schedule: Q01DX001 (ip), vehicle: saline with Tween-80
  T/C: 143 % of control
dose: 20.0 mg/kg/injection, schedule: Q04DX003 (ip), vehicle: other
  survivor count: 2 of 10 on day 57
dose: 20.0 mg/kg/injection, schedule: Q04DX004 (ip), vehicle: saline with Tween-80, evaluated on day 13
  T/C: 174 % of control
dose: 20.0 mg/kg/injection, schedule: Q04DX004 (ip), vehicle: saline with Tween-80, evaluated on day 77
  T/C: 205 % of control
dose: 20.0 mg/kg/injection, schedule: Q04DX004 (ip), vehicle: saline with Tween-80, evaluated on day 84
  T/C: 345 % of control
dose: 20.0 mg/kg/injection, schedule: Q04DX004 (ip), vehicle: saline with Tween-80, evaluated on day 101
  T/C: 217 % of control
dose: 21.0 mg/kg/injection, schedule: Q07DX002 (ip), vehicle: saline with Tween-80, evaluated on day 80
  T/C: 266 % of control
dose: 21.0 mg/kg/injection, schedule: Q07DX002 (ip), vehicle: saline with Tween-80, evaluated on day 84
  T/C: 381 % of control
dose: 21.0 mg/kg/injection, schedule: Q07DX002 (ip), vehicle: saline with Tween-80, evaluated on day 101
  T/C: 413 % of control
dose: 21.0 mg/kg/injection, schedule: Q07DX002 (ip), vehicle: saline with Tween-80, evaluated on day 119
  T/C: 150 % of control
dose: 22.0 mg/kg/injection, schedule: Q01DX005 (ip), vehicle: saline with Tween-80
  T/C: 145 % of control
dose: 24.0 mg/kg/injection, schedule: Q01DX001 (ip), vehicle: gum acacia, evaluated on day 15
  T/C: 187 % of control
dose: 24.0 mg/kg/injection, schedule: Q01DX001 (ip), vehicle: gum acacia, evaluated on day 46
  T/C: 156 % of control
dose: 24.0 mg/kg/injection, schedule: Q01DX001 (ip), vehicle: gum acacia, evaluated on day 77
  T/C: 216 % of control
dose: 24.0 mg/kg/injection, schedule: Q01DX001 (ip), vehicle: gum acacia, evaluated on day 90
  T/C: 182 % of control
dose: 24.0 mg/kg/injection, schedule: Q01DX001 (ip), vehicle: gum acacia, evaluated on day 136
  T/C: 106 % of control
dose: 24.0 mg/kg/injection, schedule: Q01DX001 (ip), vehicle: saline with Tween-80, evaluated on day 12
  T/C: 119 and 124 % of control
dose: 24.0 mg/kg/injection, schedule: Q01DX001 (ip), vehicle: saline with Tween-80, evaluated on day 52
  T/C: 164 % of control
dose: 24.0 mg/kg/injection, schedule: Q01DX001 (ip), vehicle: saline with Tween-80, evaluated on day 54
  T/C: 97 % of control
dose: 24.0 mg/kg/injection, schedule: Q01DX001 (ip), vehicle: saline with Tween-80, evaluated on day 90
  T/C: 165 % of control
dose: 24.0 mg/kg/injection, schedule: Q01DX001 (ip), vehicle: saline with Tween-80, evaluated on day 92
  T/C: 117 % of control
dose: 24.0 mg/kg/injection, schedule: Q08DX002 (ip), vehicle: saline + alcohol
  T/C: 125 % of control
dose: 24.0 mg/kg/injection, schedule: Q12DX002 (ip), vehicle: gum acacia
  T/C: 145 % of control
dose: 27.0 mg/kg/injection, schedule: Q07DX002 (ip), vehicle: saline with Tween-80, evaluated on day 80
  T/C: 194 % of control
dose: 27.0 mg/kg/injection, schedule: Q07DX002 (ip), vehicle: saline with Tween-80, evaluated on day 84
  T/C: 381 % of control
